# Inconclusive means that the source gave no clear call. Such entries were picked first, then a sample of the others. A potency beside an inconclusive call is a rough fit, not a confirmed value. Calls of active or inactive are those of the source. Calls follow the shape of the dose curve; as a rule, active = well fitted cell-killing curve with a large enough effect; inconclusive = small, poorly fitted or top-dose-only effect, or effect the other way; inactive = no such curve, though single readings can be large or run the other way.
# Assays:
# [1] = Quantitative High-Throughput drug screen in 47 multiple myeloma cell lines against the NCATS MIPE library collection: OCIMY7_PLB cell viability assay (AID 1918987); conditions: OCI-MY7 myeloma viability, CellTiter-Glo ATP, 48 h; viability (% of DMSO): at 45.8 µM (top of the series); also: nearly all actives have a fitted effect of over 65% in size
# Procedure, shortened: (§1)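 Myeloma cells (500/well) treated with MIPE 4.0 compounds for 48 h at 37 °C, 5% CO2. Viability read as ATP via CellTiter-Glo luminescence after 5 min at RT; DMSO-only wells = 100%, media-only = 0% viability.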
# [2] = Quantitative High-Throughput drug screen in 47 multiple myeloma cell lines against the NCATS MIPE library collection: OCIMY5_PLB cell viability assay (AID 1918988); conditions: OCI-MY5 myeloma viability, ATP luminescence, 48 h; viability, % of control: at 45.8 µM (top of the series); also: nearly all actives have a fitted effect of over 65% in size
# Procedure, shortened: as §1
# [3] = Quantitative High-Throughput drug screen in 47 multiple myeloma cell lines against the NCATS MIPE library collection: OPM1_PLB cell viability assay (AID 1918989); also: nearly all actives have a fitted effect of over 40% in size
# Procedure, shortened: as §1
# [4] = Quantitative High-Throughput drug screen in 47 multiple myeloma cell lines against the NCATS MIPE library collection: SKMM1_PLB cell viability assay (AID 1919863); conditions: SKMM1 myeloma viability, CellTiter-Glo ATP, 48 h; viability: stronger effect = lower value; also: nearly all actives have a fitted effect of over 35% in size
# Procedure, shortened: as §1
# [5] = Quantitative High-Throughput drug screen in 47 multiple myeloma cell lines against the NCATS MIPE library collection: XG6_PLB cell viability assay (AID 1919865); conditions: XG6 myeloma viability, CellTiter-Glo ATP luminescence, 48 h; viability (% of control): at 45.8 µM (top of the series); also: nearly all actives have a fitted effect of over 40% in size
# Procedure, shortened: as §1
# [6] = Quantitative High-Throughput drug screen in 47 multiple myeloma cell lines against the NCATS MIPE library collection: XG1_PLB cell viability assay (AID 1919866); also: nearly all actives have a fitted effect of over 35% in size
# Procedure, shortened: as §1
# [7] = Quantitative High-Throughput drug screen in 47 multiple myeloma cell lines against the NCATS MIPE library collection: VP6_DJ cell viability assay (AID 1919867); conditions: ATP luminescence, 48 h; viability (% of DMSO): at 45.8 µM (top of the series); also: nearly all actives have a fitted effect of over 40% in size
# Procedure, shortened: as §1
# [8] = Quantitative High-Throughput drug screen in 47 multiple myeloma cell lines against the NCATS MIPE library collection: U266_ATCC cell viability assay (AID 1919864); also: nearly all actives have a fitted effect of over 35% in size
# Procedure, shortened: as §1
# [9] = Quantitative High-Throughput drug screen in 47 multiple myeloma cell lines against the NCATS MIPE library collection: KMS34_JCRB cell viability assay (AID 1918985); conditions: KMS34 myeloma viability, CellTiter-Glo ATP luminescence, 48 h; viability, percent of control: at 45.8 µM (top of the series); also: nearly all actives have a fitted effect of over 40% in size
# Procedure, shortened: as §1
# Potency is read from the fitted curve at half-maximal effect.
smiles,measurement,setting,value
CC(C)(C#N)c1cc(Cn2cncn2)cc(C(C)(C)C#N)c1,Potency,[1],"inconclusive: 0.0017 µM [rising, full curve, poor fit]"
same,Potency,[2],inactive
same,Potency,[3],inactive
same,Potency,[4],"inconclusive: 3.72 µM [cytotoxic, partial curve, poor fit]"
same,Potency,[5],inactive
same,Potency,[6],inactive
same,Potency,[7],"inconclusive: 9.35 µM [cytotoxic, full curve, poor fit]"
Cc1cc(C2CCCCC2)n(O)c(=O)c1,Potency,[1],active: 7.43 µM
same,Potency,[4],active: 9.35 µM
same,Potency,[8],"inconclusive: 18.7 µM [cytotoxic, partial curve]"
Oc1ccc(-c2ccc(-c3cc(Nc4cccc(CNC5CC5)c4)n[nH]3)cc2)c(O)c1,Potency,[4],active: 5.26 µM
CC[C@H]1OC(=O)[C@H](C)C(=O)[C@H](C)[C@@H](O[C@H]2O[C@H](C)C[C@H](N(C)C)[C@@H]2O)[C@](C)(OC)C[C@@H](C)C(=O)[C@H](C)[C@H]2N(CCCCn3cnc(-c4cccnc4)c3)C(=O)O[C@]12C,Potency,[9],"inconclusive: 2.09 µM [cytotoxic, partial curve, poor fit]"
same,Potency,[2],active: 26.4 µM
same,Potency,[8],inactive
same,Potency,[6],inactive
same,Potency,[7],active: 11.8 µM
CN(C)Cc1ccc(-c2nc3cccc4c3n2CCNC4=O)cc1,Potency,[9],"inconclusive: 20.9 µM [cytotoxic, partial curve, poor fit]"
same,Potency,[3],"inconclusive: 26.4 µM [cytotoxic, single point]"
same,Potency,[4],"inconclusive: 33.2 µM [cytotoxic, single point]"
same,Potency,[8],"inconclusive: 16.6 µM [cytotoxic, partial curve]"
CO[C@@H](C(=O)N1Cc2[nH]nc(NC(=O)c3ccc(N4CCN(C)CC4)cc3)c2C1)c1ccccc1,Potency,[9],"inconclusive: 0.418 µM [cytotoxic, full curve]"
same,Potency,[4],"inconclusive: 0.935 µM [cytotoxic, full curve, poor fit]"
same,Potency,[6],"inconclusive: 20.9 µM [cytotoxic, partial curve, poor fit]"
same,Potency,[7],"inconclusive: 0.0026 µM [cytotoxic, full curve, poor fit]"
OCCCNc1cc(-c2ccnc(Nc3cccc(Cl)c3)n2)ccn1,Potency,[9],active: 0.132 µM
same,Potency,[7],active: 0.0235 µM
CC=C(C)C(=O)O[C@H]1C(C)=C[C@]23C(=O)[C@@H](C=C(CO)[C@@H](O)[C@]12O)[C@H]1[C@@H](C[C@H]3C)C1(C)C,Potency,[1],active: 14.8 µM
same,Potency,[2],"inconclusive: 16.6 µM [cytotoxic, partial curve, poor fit]"
same,Potency,[4],active: 0.0059 µM
same,Potency,[8],"inconclusive: 0.0083 µM [cytotoxic, full curve, poor fit]"
same,Potency,[6],"inconclusive: 23.5 µM [cytotoxic, partial curve, poor fit]"
same,Potency,[7],active: 26.4 µM
CN(C)Cc1cccc(N=C(c2ccccc2)c2c(O)[nH]c3cc(C(=O)N(C)C)ccc23)c1,Potency,[9],"inconclusive: 18.7 µM [cytotoxic, partial curve, poor fit]"
same,Potency,[4],"inconclusive: 1.66 µM [cytotoxic, full curve, poor fit]"
same,Potency,[8],active: 18.7 µM
same,Potency,[7],active: 13.2 µM
Cc1ccccc1-n1c(Cn2nc(-c3cccc(O)c3)c3c(N)ncnc32)nc2cccc(C)c2c1=O,Potency,[8],"inconclusive: 6.62 µM [cytotoxic, full curve, poor fit]"
same,Potency,[7],active: 1.05 µM
CC1(C)C(=O)N(CCN2CCC(C(=O)c3ccc(F)cc3)CC2)c2ccccc21,Potency,[1],"inconclusive: 14.8 µM [cytotoxic, partial curve, poor fit]"
same,Potency,[4],"inconclusive: 4.18 µM [cytotoxic, full curve, poor fit]"
NS(=O)(=O)c1ccc(NC2=CC(=O)c3ccccc3C2=O)cc1,Potency,[9],"inconclusive: 3.32 µM [cytotoxic, full curve, poor fit]"
same,Potency,[8],"inconclusive: 37.2 µM [cytotoxic, single point]"
same,Potency,[5],"inconclusive: 6.62 µM [cytotoxic, partial curve, poor fit]"
same,Potency,[6],"inconclusive: 5.26 µM [cytotoxic, partial curve]"
Cc1cn2c(-c3cn[nH]c3)cnc2c(Nc2ccc(C(=O)N3CCNCC3)cc2F)n1,Potency,[9],"inconclusive: 11.8 µM [rising, single point]"
same,Potency,[8],active: 13.2 µM
same,Potency,[6],active: 3.72 µM
same,Potency,[7],active: 8.33 µM
CC(CCc1ccc(O)cc1)NCCc1ccc(O)c(O)c1 (centres undefined),Potency,[2],active: 20.9 µM
same,Potency,[5],"inconclusive: 26.4 µM [cytotoxic, single point]"
Nc1ncnc2ccccc12,Potency,[9],"inconclusive: 9.35 µM [rising, partial curve, poor fit]"
same,Potency,[4],"inconclusive: 0.105 µM [rising, full curve, poor fit]"
same,Potency,[8],inactive
same,Potency,[5],"inconclusive: 1.32 µM [cytotoxic, full curve, poor fit]"
same,Potency,[7],inactive
CC(C)C(C)C=CC(C)C1CCC2C3=CC=C4CC(O)CCC4(C)C3CCC21C (centres undefined),Potency,[1],"inconclusive: 0.0012 µM [cytotoxic, full curve, poor fit]"
same,viability,[4],inactive: 135%
same,Potency,[8],"inconclusive: 20.9 µM [cytotoxic, partial curve]"
same,Potency,[5],inactive
same,Potency,[6],"inconclusive: 10.5 µM [cytotoxic, single point]"
same,Potency,[7],inactive
CC(C)n1c(C=C[C@H](O)C[C@H](O)CC(=O)O)c(-c2ccc(F)cc2)c2ccccc21,Potency,[9],"inconclusive: 20.9 µM [cytotoxic, partial curve, poor fit]"
same,Potency,[2],"inconclusive: 29.6 µM [cytotoxic, single point]"
same,Potency,[6],active: 4.69 µM
CCNC(=O)c1cc2c(-c3cc(OCCN4CCCC4)c(Cl)cc3Cl)nc(N)nc2s1,Potency,[9],active: 1.32 µM
same,Potency,[8],active: 1.05 µM
CN1CCN(CCOc2cc(OC3CCOCC3)c3c(Nc4c(Cl)ccc5c4OCO5)ncnc3c2)CC1,Potency,[9],"inconclusive: 23.5 µM [cytotoxic, partial curve]"
same,Potency,[4],"inconclusive: 33.2 µM [cytotoxic, single point]"
same,Potency,[8],"inconclusive: 33.2 µM [cytotoxic, single point]"
CC1(C)O[C@@H]2C[C@H]3[C@@H]4CCC5=CC(=O)C=C[C@]5(C)[C@@H]4[C@@H](O)C[C@]3(C)[C@]2(C(=O)CO)O1,Potency,[1],"inconclusive: 0.418 µM [cytotoxic, full curve, poor fit]"
same,viability,[4],inactive: 142%
same,Potency,[6],"inconclusive: 37.2 µM [cytotoxic, single point]"
same,Potency,[7],active: 18.7 µM
N#CC(c1ccnc(NCCc2cccnc2)n1)c1nc2ccccc2s1 (centres undefined),Potency,[4],"inconclusive: 37.2 µM [cytotoxic, single point]"
same,Potency,[8],"inconclusive: 23.5 µM [cytotoxic, single point]"
same,Potency,[6],active: 10.5 µM
CC(C)(C)c1nc(-c2cccc(NS(=O)(=O)c3c(F)cccc3F)c2F)c(-c2ccnc(N)n2)s1,Potency,[9],"inconclusive: 16.6 µM [cytotoxic, partial curve, poor fit]"
same,Potency,[8],active: 5.9 µM
same,Potency,[5],active: 2.96 µM
same,Potency,[6],active: 10.5 µM
CC(C)(C)c1cc(C(=O)O)c(NC(=O)Nc2ccc3[nH]ncc3c2)s1,Potency,[1],"inconclusive: 2.35 µM [cytotoxic, partial curve, poor fit]"
same,Potency,[2],"inconclusive: 37.2 µM [cytotoxic, single point]"
same,Potency,[3],"inconclusive: 23.5 µM [cytotoxic, partial curve, poor fit]"
same,Potency,[4],"inconclusive: 18.7 µM [cytotoxic, single point]"
same,Potency,[8],"inconclusive: 3.72 µM [cytotoxic, partial curve, poor fit]"
same,Potency,[5],inactive
same,Potency,[6],inactive
same,Potency,[7],inactive
CC[C@@]1(O)C(=O)OCc2c1cc1n(c2=O)Cc2cc3cc(O)ccc3nc2-1,Potency,[3],active: 2.96 µM
same,Potency,[4],active: 1.32 µM
Cc1ccc(-n2[nH]c(C)c(N=Nc3cccc(-c4cccc(C(=O)O)c4)c3O)c2=O)cc1C,Potency,[1],"inconclusive: 33.2 µM [cytotoxic, partial curve, poor fit]"
same,Potency,[3],"inconclusive: 33.2 µM [cytotoxic, single point]"
same,Potency,[4],"inconclusive: 26.4 µM [cytotoxic, single point]"
same,Potency,[5],"inconclusive: 33.2 µM [cytotoxic, single point]"
same,Potency,[7],"inconclusive: 33.2 µM [cytotoxic, partial curve, poor fit]"
CC(=O)OCC(=O)[C@@]1(O)[C@H](C)C[C@H]2[C@@H]3C=C(C)C4=Cc5c(cnn5-c5ccccc5)C[C@]4(C)[C@@H]3[C@@H](O)C[C@@]21C,Potency,[9],active: 8.33 µM
same,Potency,[4],active: 18.7 µM
CC(COc1ccccc1)N(CCCl)Cc1ccccc1 (centres undefined),Potency,[1],"inconclusive: 37.2 µM [cytotoxic, partial curve, poor fit]"
same,Potency,[3],"inconclusive: 8.33 µM [rising, partial curve, poor fit]"
same,viability,[4],inactive: 112%
same,Potency,[8],inactive
same,Potency,[5],"inconclusive: 23.5 µM [cytotoxic, single point]"
same,Potency,[6],"inconclusive: 33.2 µM [cytotoxic, single point]"
same,Potency,[7],"inconclusive: 37.2 µM [cytotoxic, single point]"

# Five records picked at random from those above:
smiles,measurement,setting,value
CC(C)(C)c1cc(C(=O)O)c(NC(=O)Nc2ccc3[nH]ncc3c2)s1,Potency,[1],"inconclusive: 2.35 µM [cytotoxic, partial curve, poor fit]"
CO[C@@H](C(=O)N1Cc2[nH]nc(NC(=O)c3ccc(N4CCN(C)CC4)cc3)c2C1)c1ccccc1,Potency,[4],"inconclusive: 0.935 µM [cytotoxic, full curve, poor fit]"
CC(C)(C)c1cc(C(=O)O)c(NC(=O)Nc2ccc3[nH]ncc3c2)s1,Potency,[4],"inconclusive: 18.7 µM [cytotoxic, single point]"
CC(C)C(C)C=CC(C)C1CCC2C3=CC=C4CC(O)CCC4(C)C3CCC21C (centres undefined),Potency,[1],"inconclusive: 0.0012 µM [cytotoxic, full curve, poor fit]"
CC(C)(C#N)c1cc(Cn2cncn2)cc(C(C)(C)C#N)c1,Potency,[1],"inconclusive: 0.0017 µM [rising, full curve, poor fit]"
